# Measured values taken from the supplement of paper PMC10849652.
# The chains behind the UniProt entries cited, without tags or fusion partners. Where a name states a change or a piece, a line headed by the entry shows the natural chain unless it says otherwise.
# UniProt Q8TCZ2: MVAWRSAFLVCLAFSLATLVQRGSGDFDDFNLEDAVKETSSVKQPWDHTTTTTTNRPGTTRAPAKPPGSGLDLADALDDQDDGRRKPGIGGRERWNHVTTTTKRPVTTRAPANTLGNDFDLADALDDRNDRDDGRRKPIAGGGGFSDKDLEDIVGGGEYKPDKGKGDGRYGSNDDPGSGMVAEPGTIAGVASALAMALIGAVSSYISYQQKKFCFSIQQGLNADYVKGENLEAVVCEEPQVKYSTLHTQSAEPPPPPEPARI
# UniProt Q9NRR8: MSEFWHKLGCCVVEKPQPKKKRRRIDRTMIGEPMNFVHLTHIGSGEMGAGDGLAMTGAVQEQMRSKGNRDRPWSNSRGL
# UniProt P14209: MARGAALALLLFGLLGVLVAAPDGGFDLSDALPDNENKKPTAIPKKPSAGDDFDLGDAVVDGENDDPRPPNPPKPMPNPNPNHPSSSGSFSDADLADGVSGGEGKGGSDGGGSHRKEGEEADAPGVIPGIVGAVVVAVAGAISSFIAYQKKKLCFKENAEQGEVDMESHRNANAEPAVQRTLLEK
# UniProt P30307: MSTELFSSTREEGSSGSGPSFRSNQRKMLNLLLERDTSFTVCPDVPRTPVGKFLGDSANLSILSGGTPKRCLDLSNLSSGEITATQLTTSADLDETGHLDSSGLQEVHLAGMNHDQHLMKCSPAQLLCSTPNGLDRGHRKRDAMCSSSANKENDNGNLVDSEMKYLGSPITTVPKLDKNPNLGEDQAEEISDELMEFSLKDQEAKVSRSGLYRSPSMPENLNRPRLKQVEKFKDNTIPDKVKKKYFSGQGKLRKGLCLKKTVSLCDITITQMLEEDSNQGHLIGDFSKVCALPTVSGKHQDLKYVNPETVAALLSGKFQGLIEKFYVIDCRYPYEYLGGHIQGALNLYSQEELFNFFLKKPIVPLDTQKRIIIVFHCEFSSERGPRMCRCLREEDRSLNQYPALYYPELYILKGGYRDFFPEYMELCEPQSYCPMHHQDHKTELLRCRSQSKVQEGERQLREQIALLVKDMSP
# UniProt Q9HC77: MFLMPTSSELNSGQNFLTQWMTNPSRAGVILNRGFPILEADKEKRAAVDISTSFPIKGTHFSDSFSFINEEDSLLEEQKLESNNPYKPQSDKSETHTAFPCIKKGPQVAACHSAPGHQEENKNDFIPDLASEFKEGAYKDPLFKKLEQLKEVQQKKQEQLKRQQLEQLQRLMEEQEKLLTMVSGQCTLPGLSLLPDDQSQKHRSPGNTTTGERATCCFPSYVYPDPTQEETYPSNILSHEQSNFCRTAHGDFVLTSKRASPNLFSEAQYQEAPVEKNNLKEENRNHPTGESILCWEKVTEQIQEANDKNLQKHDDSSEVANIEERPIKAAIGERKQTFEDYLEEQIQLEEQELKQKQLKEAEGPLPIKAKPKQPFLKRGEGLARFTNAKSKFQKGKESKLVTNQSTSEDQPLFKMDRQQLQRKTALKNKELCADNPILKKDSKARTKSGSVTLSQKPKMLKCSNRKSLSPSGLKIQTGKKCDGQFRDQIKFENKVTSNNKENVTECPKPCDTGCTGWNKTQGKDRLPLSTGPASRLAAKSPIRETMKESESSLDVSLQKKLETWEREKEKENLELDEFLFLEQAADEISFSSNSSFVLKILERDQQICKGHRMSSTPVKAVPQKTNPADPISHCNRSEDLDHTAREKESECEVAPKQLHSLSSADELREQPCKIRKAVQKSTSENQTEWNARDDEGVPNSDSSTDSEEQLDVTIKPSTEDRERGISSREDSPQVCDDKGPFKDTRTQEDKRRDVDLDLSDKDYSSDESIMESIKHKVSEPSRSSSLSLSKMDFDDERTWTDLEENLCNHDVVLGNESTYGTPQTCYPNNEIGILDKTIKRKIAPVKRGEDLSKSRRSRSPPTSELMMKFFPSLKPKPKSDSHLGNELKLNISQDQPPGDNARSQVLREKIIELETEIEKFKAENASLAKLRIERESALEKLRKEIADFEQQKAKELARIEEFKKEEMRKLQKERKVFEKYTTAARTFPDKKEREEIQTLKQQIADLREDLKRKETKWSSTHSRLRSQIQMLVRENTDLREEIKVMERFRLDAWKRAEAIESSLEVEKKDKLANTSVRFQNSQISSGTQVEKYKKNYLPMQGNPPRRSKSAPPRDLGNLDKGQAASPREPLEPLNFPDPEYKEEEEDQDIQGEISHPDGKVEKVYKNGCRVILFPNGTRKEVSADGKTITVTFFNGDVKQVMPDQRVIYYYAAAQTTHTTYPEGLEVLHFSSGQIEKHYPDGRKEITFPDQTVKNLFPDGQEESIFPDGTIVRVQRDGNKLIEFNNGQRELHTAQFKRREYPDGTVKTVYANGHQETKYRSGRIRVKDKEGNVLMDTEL
# UniProt Q9NSP4: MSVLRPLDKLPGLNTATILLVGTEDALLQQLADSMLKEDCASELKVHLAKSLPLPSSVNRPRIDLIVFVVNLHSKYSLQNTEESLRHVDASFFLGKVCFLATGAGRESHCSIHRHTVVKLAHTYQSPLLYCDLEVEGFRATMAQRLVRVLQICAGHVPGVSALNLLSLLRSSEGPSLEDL
# UniProt P17676: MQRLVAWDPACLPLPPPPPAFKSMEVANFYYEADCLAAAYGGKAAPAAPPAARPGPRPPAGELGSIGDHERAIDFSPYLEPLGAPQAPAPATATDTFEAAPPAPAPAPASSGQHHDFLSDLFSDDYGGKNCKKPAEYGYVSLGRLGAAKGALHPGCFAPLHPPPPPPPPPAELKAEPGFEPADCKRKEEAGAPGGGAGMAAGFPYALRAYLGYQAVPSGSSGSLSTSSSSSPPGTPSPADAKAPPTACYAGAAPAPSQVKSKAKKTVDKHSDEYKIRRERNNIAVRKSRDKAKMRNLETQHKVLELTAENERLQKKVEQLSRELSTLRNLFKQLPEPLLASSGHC
# UniProt P53567: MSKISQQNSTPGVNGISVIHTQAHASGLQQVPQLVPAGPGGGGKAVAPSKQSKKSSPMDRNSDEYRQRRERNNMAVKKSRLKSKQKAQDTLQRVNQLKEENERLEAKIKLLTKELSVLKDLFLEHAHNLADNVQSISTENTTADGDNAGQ
# UniProt Q9UNH5: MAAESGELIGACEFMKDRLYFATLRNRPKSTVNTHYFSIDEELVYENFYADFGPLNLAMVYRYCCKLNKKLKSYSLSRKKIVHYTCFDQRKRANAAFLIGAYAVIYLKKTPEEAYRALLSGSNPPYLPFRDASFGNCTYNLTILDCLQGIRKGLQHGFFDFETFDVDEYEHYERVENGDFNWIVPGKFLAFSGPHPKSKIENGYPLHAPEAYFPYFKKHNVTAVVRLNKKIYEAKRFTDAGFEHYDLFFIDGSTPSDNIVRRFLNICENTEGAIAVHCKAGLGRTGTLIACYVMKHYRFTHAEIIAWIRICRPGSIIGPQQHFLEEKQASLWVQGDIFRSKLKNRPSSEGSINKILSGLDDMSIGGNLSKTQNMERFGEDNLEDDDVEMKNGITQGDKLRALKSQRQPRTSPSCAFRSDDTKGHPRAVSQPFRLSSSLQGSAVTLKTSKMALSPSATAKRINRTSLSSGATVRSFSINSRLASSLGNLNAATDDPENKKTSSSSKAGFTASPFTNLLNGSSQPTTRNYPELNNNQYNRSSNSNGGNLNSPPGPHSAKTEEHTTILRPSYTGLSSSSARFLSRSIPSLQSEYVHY
# UniProt P30304: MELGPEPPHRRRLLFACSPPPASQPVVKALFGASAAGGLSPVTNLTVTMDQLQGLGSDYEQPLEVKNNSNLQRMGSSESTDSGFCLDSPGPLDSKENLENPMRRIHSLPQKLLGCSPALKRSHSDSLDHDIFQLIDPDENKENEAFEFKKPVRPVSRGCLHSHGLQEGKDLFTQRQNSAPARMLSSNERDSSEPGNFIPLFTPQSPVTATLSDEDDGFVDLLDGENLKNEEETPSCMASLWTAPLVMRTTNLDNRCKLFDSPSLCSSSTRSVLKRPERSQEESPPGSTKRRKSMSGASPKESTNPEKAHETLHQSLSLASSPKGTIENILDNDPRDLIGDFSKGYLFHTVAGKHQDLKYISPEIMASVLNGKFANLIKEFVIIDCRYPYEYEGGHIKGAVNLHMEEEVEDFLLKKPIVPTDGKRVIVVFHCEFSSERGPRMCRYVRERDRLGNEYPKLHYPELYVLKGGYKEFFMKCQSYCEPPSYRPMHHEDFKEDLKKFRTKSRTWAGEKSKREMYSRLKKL
# UniProt Q9UQ88: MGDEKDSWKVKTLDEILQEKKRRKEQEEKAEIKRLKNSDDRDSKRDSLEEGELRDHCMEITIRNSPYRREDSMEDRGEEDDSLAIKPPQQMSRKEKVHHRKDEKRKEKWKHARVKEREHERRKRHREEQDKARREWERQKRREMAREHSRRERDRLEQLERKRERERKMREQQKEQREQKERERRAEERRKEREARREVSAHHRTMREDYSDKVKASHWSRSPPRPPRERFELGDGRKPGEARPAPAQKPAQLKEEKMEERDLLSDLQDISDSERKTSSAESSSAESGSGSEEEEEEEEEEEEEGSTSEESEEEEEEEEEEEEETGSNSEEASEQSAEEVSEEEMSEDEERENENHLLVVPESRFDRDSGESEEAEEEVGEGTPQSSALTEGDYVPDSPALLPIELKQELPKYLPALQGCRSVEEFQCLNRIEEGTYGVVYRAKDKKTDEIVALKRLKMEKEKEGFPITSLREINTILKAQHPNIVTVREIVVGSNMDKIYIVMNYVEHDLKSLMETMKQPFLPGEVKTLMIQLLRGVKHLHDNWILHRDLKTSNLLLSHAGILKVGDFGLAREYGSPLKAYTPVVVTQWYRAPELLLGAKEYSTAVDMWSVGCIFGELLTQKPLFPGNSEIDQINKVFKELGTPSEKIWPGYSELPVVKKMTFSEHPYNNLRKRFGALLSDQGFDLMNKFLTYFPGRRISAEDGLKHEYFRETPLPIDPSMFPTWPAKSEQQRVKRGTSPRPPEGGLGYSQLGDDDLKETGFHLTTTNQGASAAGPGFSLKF
# UniProt Q9Y4F5: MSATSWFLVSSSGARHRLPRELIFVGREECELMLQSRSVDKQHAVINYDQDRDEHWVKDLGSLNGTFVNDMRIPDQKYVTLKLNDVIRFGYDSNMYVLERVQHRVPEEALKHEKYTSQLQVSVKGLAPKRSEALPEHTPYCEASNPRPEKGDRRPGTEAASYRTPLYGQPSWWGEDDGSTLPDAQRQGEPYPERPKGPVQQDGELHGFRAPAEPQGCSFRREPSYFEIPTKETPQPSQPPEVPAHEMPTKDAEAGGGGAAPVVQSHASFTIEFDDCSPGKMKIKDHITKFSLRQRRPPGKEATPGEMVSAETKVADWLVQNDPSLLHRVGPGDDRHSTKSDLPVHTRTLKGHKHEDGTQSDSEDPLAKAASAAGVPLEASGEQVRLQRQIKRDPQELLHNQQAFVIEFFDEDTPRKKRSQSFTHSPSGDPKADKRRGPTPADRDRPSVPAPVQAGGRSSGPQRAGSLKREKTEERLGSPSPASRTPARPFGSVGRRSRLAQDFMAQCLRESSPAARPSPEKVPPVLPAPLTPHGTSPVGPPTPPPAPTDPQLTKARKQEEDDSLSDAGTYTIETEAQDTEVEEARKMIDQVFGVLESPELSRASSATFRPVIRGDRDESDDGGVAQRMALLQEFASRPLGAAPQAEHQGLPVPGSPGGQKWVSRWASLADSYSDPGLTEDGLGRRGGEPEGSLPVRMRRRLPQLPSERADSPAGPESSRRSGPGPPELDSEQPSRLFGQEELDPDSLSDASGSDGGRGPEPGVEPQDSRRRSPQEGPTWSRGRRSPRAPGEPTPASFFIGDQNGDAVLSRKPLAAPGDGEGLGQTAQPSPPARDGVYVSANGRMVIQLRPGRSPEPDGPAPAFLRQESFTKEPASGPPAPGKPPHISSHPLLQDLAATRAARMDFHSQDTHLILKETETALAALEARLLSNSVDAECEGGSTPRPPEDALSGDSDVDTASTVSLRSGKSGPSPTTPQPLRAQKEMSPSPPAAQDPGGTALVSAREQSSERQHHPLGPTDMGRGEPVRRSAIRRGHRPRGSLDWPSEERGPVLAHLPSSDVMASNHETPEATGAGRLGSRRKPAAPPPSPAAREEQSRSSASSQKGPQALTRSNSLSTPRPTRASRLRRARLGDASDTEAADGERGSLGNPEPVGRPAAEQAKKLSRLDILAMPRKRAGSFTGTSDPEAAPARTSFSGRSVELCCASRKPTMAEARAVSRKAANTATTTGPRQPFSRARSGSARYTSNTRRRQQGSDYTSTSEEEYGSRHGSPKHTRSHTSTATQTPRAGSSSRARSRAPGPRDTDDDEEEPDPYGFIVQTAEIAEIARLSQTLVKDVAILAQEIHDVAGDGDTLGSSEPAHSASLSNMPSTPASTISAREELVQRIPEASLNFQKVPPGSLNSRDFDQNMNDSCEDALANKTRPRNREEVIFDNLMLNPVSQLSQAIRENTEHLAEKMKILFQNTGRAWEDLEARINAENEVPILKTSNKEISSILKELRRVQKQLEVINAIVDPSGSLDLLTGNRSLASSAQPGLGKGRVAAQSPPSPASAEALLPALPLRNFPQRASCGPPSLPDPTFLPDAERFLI
# Some of the results follow.
# How the values were obtained:
# Assay in all cases: log2 fold change, soluble protein after heating vs DMSO (PISA); higher = thermal stabilisation; K562 lysate, 10 uM; active = over 0.2 and 3.5 SD of the protein, either way, in both replicates (recomputed)
# [1] = compound: CS(=O)(=O)CCNCc1ccc(-c2ccc3ncnc(Nc4ccc(OCc5cccc(F)c5)c(Cl)c4)c3c2)o1 [lapatinib]
# Summary of the method: (§1)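 A 30 min treatment with 10 μM compound was applied to crude K562 extract at 1 mg/mL protein in PBS pH 7.4 with 1 mM MgCl2. Heating for 3 min spanned 48°C-58°C, after which aliquots were pooled, adjusted to 0.5% NP-40 at 4°C and spun at 21,000xg for 90 min. TMTpro 16plex LC-MS/MS of the supernatant, with channel sums equalised, gave values recorded as log-two fold change in thermal stability against solvent controls, from duplicates.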
# [2] = compound: CS(=O)(=O)N1CCN(Cc2cc3nc(-c4cccc5[nH]ncc45)nc(N4CCOCC4)c3s2)CC1 [pictilisib]
# Summary of the method: as §1
# [3] = compound: C[C@@H](Oc1cc(-c2cnn(C3CCNCC3)c2)cnc1N)c1c(Cl)ccc(F)c1Cl [crizotinib]
# Summary of the method: as §1
# [4] = compound: C[C@H](C1=CC=C(C=C1)C(=O)NC2=C3C=CNC3=NC=C2)N
# Summary of the method: as §1
# [5] = compound: C[C@H](Nc1ncnc2nc[nH]c12)c1cc2cccc(Cl)c2c(=O)n1-c1ccccc1 [duvelisib]
# Summary of the method: as §1
# [6] = compound: Cc1cc(Nc2cc(CN3CCOCC3)c3nc(C)c(Cc4ccc(Cl)cc4F)n3n2)n[nH]1 [gandotinib]
# Summary of the method: as §1
# [7] = compound: Cc1cc(Nc2cc(N3CCN(C)CC3)nc(Sc3ccc(NC(=O)C4CC4)cc3)n2)n[nH]1 [tozasertib]
# Summary of the method: as §1
# [8] = compound: Cc1ccc(-n2nc(C(C)(C)C)cc2NC(=O)Nc2ccc(OCCN3CCOCC3)c3ccccc23)cc1 [doramapimod]
# Summary of the method: as §1
# [9] = compound: Cc1ccc(NC(=O)c2ccc(CN3CC[C@H](N(C)C)C3)c(C(F)(F)F)c2)cc1Nc1nccc(-c2cncnc2)n1 [bafetinib]
# Summary of the method: as §1
# [10] = compound: Cc1cccc(CC(=O)N2CCc3c2ccc(-c2cn(C)c4ncnc(N)c24)c3F)n1
# Summary of the method: as §1
Target,log2 fold change [1],log2 fold change [2],log2 fold change [3],log2 fold change [4],log2 fold change [5],log2 fold change [6],log2 fold change [7],log2 fold change [8],log2 fold change [9],log2 fold change [10]
CDKAL1 (UniProt Q5VV42),inactive: -0.004,inactive: -0.047,inactive: -0.009,inactive: -0.047,inactive: -0.039,inactive: -0.038,inactive: 0.006,inactive: -0.009,inactive: -0.028,inactive: -0.008
CDC23 (UniProt Q9UJX2),inactive: 0.014,inactive: -0.026,inactive: -0.008,inactive: -0.001,inactive: 0.032,inactive: -0.071,inactive: -0.005,inactive: 0.03,inactive: -0.056,inactive: -0.01
CEP41 (UniProt Q9BYV8),inactive: -0.017,inactive: 0.039,inactive: 0.062,inactive: 0.047,inactive: -0.013,inactive: 0.003,inactive: 0.086,inactive: 0.044,inactive: -0.067,inactive: 0.007
CDC27 (UniProt G5EA36),inactive: -0.063,inactive: -0.018,inactive: 0.09,inactive: -0.057,inactive: 0.047,inactive: -0.139,,inactive: -0.161,inactive: -0.032,inactive: -0.033
CD99L2 isoform 5 (UniProt Q8TCZ2),inactive: -0.13,,inactive: 0.021,inactive: 0.089,inactive: -0.098,inactive: 0.004,,inactive: -0.096,,inactive: -0.004
CEP164 (UniProt Q9UPV0),inactive: -0.077,inactive: 0.096,,,,,,,inactive: 0.069,
CFAP47 (UniProt Q6ZTR5),inactive: -0.05,,inactive: -0.083,inactive: -0.329,inactive: -0.042,inactive: 0.321,inactive: -0.165,inactive: -0.055,,inactive: 0.257
CDC42SE1 (UniProt Q9NRR8),inactive: 0.066,inactive: 0.203,inactive: 0.007,inactive: -0.075,,inactive: -0.107,,inactive: 0.012,inactive: -0.213,inactive: 0.02
CD99 (UniProt P14209),inactive: 0.019,,inactive: -0.077,inactive: 0.051,inactive: 0.102,inactive: -0.038,,inactive: 0.031,,inactive: 0.007
CFL1 (UniProt E9PP50),inactive: -0.143,inactive: -0.316,,,,,inactive: -0.214,,inactive: -0.46,
CEFIP (UniProt Q711Q0),inactive: -0.042,inactive: -0.044,inactive: -0.033,inactive: -0.05,,inactive: 0.081,inactive: 0.069,inactive: 0.008,inactive: 0.02,inactive: 0.019
CDC25C (UniProt P30307),inactive: -0.118,inactive: -0.025,,inactive: -0.049,inactive: -0.021,inactive: -0.109,inactive: 0.03,inactive: -0.003,inactive: 0.038,inactive: 0.013
CENPJ (UniProt Q9HC77),inactive: 0.073,inactive: -0.034,inactive: -0.043,,inactive: -0.105,,inactive: -0.046,inactive: 0.073,inactive: -0.113,
CENPM (UniProt Q9NSP4),,inactive: -0.1,inactive: -0.291,inactive: -0.06,inactive: 0.132,inactive: -0.114,inactive: 0.253,inactive: 0.083,inactive: -0.111,inactive: 0.069
CEBPB (UniProt P17676),,inactive: 0.154,inactive: -0.003,inactive: -0.098,inactive: -0.035,inactive: 0.143,inactive: 0.028,inactive: 0.091,inactive: -0.057,inactive: 0.067
CD82 (UniProt P27701),inactive: -0.024,,,inactive: -0.098,,inactive: 0.192,,,,inactive: 0.029
CEP295 isoform 3 (UniProt Q9C0D2),inactive: -0.038,inactive: 0.057,inactive: 0.004,active: -0.365,,inactive: 0.058,inactive: 0.111,inactive: 0.059,inactive: 0.031,inactive: 0.072
CEBPG (UniProt P53567),inactive: -0.164,inactive: -0.149,inactive: -0.056,inactive: -0.013,,inactive: -0.002,,inactive: 0.007,inactive: -0.017,inactive: 0.035
CDC14A isoform 2 (UniProt Q9UNH5),inactive: 0.062,,inactive: 0.031,,,,,inactive: 0.108,,
CDC25B (UniProt P30305),inactive: 0.223,inactive: -0.002,,inactive: -0.004,inactive: -0.018,inactive: -0.065,inactive: -0.039,inactive: 0.009,inactive: -0.033,inactive: -0.034
CDC25A (UniProt P30304),inactive: -0.016,,,,inactive: -0.014,,,inactive: 0.114,,
"CDC42, A0A494C1M1",inactive: 0.005,,,inactive: -0.18,,inactive: -0.233,,,,inactive: -0.048
CDK11A (UniProt Q9UQ88),inactive: 0.104,inactive: -0.02,inactive: 0.092,inactive: 0.049,inactive: -0.003,inactive: 0.122,,inactive: -0.072,inactive: -0.033,inactive: -0.093
CDK16 isoform 2 (UniProt Q00536),inactive: 0.046,,inactive: 0.063,inactive: -0.016,inactive: 0.043,active: 0.533,,inactive: 0.012,inactive: -0.007,inactive: -0.05
CEP170B (UniProt Q9Y4F5),inactive: 0.021,,inactive: -0.117,inactive: -0.111,inactive: -0.077,inactive: -0.001,inactive: 0.022,inactive: 0.041,,inactive: 0.078
CDC42BPG (UniProt Q6DT37),inactive: -0.08,,inactive: -0.167,,inactive: -0.017,,,inactive: -0.042,,

# Nothing new here: entries from further up.
Target,log2 fold change [1],log2 fold change [2],log2 fold change [3],log2 fold change [4],log2 fold change [5],log2 fold change [6],log2 fold change [7],log2 fold change [8],log2 fold change [9],log2 fold change [10]
CEFIP (UniProt Q711Q0),inactive: -0.042,inactive: -0.044,inactive: -0.033,inactive: -0.05,,inactive: 0.081,inactive: 0.069,inactive: 0.008,inactive: 0.02,inactive: 0.019
CDC25C (UniProt P30307),inactive: -0.118,inactive: -0.025,,inactive: -0.049,inactive: -0.021,inactive: -0.109,inactive: 0.03,inactive: -0.003,inactive: 0.038,inactive: 0.013
